Where a chain is given by its changes, count along the chain named. These are yes or no findings as the source states them, for the method shown. Binding seen in cells or lysates may run through a third protein. For some of these results: A result given as binding can be weak or reduced; the word gives no strength. Sequences can lack the tags named with a protein.

From article PMC11784221, “Platelet factor 4-derived C15 peptide broadly inhibits enteroviruses by disrupting viral attachment” (Journal of Virology, 2025) come the findings set out here.

Assay in all cases: co-IP
Assay [1] has as its target T1, PF4-Myc (wild-type platelet factor 4 with a Myc tag) (UniProt P02776).
T1 sequence: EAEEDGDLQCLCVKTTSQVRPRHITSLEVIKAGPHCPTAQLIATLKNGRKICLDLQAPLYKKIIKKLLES

Assay [2] deals with T2, PF4-Myc C15 K to A mutant (UniProt P02776).
T2 sequence: T1 sequence with K61A, K62A, K65A, K66A

For assay [3], the target named is T3, GFP-C15 (C15 of PF4 fused to GFP).
T3 sequence: QAPLYKKIIKKLLES

The target of assay [4] is T4, PF4-Myc C15 K to M mutant (UniProt P02776).
T4 sequence: T1 sequence with K61M, K62M, K65M, K66M

Assay [5] concerns the target T5, PF4-ΔC15-Myc (PF4 lacking the C-terminal 15 amino acids) (UniProt P02776).
T5 sequence: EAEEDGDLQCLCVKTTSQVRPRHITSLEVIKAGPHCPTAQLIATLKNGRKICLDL

As to “CA6-VP3-HA (VP3 capsid protein of coxsackievirus A6)”, the binding result in assay [1] is “binds”; in assay [2], “no binding”; in assay [3], “binds”; in assay [4], “no binding”; in assay [5] it was “no binding”.

As for “EVD68-VP3-HA (VP3 capsid protein of enterovirus D68)”, the binding result in assay [1] is given as “binds”; in assay [2], “no binding”; in assay [3], “binds”; in assay [4] it was “no binding”; in assay [5], “no binding”.
